The results in this text go back to publication PMC3689916.

By UniProt entry, the sequences of proteins in these tests, tags left out. Where a name states a change or a piece, a line headed by the entry shows the natural chain unless it says otherwise.
UniProt P49862: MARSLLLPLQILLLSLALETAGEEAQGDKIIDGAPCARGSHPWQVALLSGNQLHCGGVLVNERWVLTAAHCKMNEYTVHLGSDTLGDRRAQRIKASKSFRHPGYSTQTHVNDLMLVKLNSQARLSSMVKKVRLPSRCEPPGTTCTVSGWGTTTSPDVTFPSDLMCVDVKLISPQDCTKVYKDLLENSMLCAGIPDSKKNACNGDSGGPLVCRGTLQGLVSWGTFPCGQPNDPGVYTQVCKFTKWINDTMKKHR

No constants are given. Whether binding was seen depends on the method and setting. A result given as binding can be weak or reduced; the word gives no strength. Where a sequence is shown, tags or fusion partners need not be part of it.

The target in the assay is recombinant human kallikrein 7 (hK7) (human) (UniProt P49862). As to the kind of experiment: SDS-stable serpin-protease complex formation (SDS-PAGE with silver staining, Western blot, MALDI-TOF MS); hK7 and vaspin or vaspin variants incubated in solution at RT (molar ratio 1:1.4 for silver-stained gels, 1:1 for Western blot, vaspin:hK7 5:1 for 24 h for MS); samples over 5 min to 24 h; complexes stable under reducing conditions; both purified. In general terms: A western blot detects proteins with antibodies after separation by electrophoresis.

B1: recombinant human vaspin (visceral adipose tissue-derived serpin; serpinA12), 10×His fusion protein (protein, UniProt Q8IW75 22-414)
chain: KPSFSPRNYKALSEVQGWKQRMAAKELARQNMDLGFKLLKKLAFYNPGRNIFLSPLSISTAFSMLCLGAQDSTLDEIKQGFNFRKMPEKDLHEGFHYIIHELTQKTQDLKLSIGNTLFIDQRLQPQRKFLEDAKNFYSAETILTNFQNLEMAQKQINDFISQKTHGKINNLIENIDPGTVMLLANYIFFRARWKHEFDPNVTKEEDFFLEKNSSVKVPMMFRSGIYQVGYDDKLSCTILEIPYQKNITAIFILPDEGKLKHLEKGLQVDTFSRWKTLLSRRVVDVSVPRLHMTGTFDLKKTLSYIGVSKIFEEHGDLTKIAPHRSLKVGEAVHKAELKMDERGTEGAAGTGAQTLPMETPLVVKIDKPYLLLIYSEKIPSVLFLGKIVNPIGK
Consider B1, for which the binding entry was “binds”.
